Laboratory results published in the supplement of paper PMC10849652.
Some of the results follow.

The chains behind the UniProt entries cited, without tags or fusion partners. Where a name states a change or a piece, a line headed by the entry shows the natural chain unless it says otherwise.
UniProt Q9ULI4: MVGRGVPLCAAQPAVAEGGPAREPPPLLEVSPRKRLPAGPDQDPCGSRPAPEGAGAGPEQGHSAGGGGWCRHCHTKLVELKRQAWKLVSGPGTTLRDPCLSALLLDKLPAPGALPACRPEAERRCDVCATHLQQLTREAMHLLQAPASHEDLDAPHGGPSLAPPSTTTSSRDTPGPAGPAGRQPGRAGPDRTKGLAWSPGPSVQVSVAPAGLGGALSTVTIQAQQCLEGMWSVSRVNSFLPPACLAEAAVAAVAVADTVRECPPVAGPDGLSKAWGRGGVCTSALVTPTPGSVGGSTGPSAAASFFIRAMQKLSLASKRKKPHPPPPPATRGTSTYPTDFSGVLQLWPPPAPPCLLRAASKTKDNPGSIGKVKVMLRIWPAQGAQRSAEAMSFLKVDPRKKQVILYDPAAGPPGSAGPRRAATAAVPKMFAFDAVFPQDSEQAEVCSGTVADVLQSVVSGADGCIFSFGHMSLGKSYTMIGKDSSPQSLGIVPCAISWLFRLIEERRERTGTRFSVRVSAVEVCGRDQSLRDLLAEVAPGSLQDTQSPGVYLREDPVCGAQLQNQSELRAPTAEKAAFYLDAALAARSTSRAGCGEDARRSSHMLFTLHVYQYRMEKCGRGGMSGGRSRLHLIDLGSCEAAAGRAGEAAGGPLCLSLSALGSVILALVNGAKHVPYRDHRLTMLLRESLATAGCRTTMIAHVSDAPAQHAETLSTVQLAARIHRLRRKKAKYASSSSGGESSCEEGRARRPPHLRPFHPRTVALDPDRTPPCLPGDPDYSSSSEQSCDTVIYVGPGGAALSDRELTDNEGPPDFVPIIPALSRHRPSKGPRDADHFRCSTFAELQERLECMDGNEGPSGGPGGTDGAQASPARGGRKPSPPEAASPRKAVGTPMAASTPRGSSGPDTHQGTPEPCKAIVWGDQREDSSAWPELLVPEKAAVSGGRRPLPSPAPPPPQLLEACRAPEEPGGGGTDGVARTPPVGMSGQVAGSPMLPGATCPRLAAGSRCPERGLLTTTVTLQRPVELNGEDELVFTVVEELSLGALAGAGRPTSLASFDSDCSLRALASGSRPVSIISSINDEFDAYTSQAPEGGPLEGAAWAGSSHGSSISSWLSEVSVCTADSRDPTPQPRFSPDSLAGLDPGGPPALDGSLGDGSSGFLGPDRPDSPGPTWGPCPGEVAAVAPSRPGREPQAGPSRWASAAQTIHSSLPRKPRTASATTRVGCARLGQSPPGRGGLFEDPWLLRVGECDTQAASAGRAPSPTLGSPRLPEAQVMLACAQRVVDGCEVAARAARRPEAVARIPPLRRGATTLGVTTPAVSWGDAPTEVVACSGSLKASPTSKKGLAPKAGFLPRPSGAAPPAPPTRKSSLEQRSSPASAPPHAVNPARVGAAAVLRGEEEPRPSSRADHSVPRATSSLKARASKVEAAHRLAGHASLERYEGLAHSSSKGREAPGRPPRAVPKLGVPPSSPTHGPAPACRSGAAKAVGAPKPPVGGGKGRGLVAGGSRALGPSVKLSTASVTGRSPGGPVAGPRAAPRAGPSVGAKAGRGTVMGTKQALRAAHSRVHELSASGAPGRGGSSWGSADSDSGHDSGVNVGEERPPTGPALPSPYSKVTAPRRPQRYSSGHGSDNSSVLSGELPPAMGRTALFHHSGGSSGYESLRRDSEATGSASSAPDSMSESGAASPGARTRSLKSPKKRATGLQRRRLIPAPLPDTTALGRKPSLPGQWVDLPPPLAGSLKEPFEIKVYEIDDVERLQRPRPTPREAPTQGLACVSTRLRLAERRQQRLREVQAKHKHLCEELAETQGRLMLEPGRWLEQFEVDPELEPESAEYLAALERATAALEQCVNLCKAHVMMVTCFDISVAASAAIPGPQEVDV
UniProt Q9BQD3: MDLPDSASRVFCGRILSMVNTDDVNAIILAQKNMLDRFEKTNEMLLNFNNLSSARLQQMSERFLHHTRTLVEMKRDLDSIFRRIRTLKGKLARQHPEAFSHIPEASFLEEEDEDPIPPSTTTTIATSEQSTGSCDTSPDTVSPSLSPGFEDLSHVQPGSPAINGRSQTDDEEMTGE
UniProt P33176: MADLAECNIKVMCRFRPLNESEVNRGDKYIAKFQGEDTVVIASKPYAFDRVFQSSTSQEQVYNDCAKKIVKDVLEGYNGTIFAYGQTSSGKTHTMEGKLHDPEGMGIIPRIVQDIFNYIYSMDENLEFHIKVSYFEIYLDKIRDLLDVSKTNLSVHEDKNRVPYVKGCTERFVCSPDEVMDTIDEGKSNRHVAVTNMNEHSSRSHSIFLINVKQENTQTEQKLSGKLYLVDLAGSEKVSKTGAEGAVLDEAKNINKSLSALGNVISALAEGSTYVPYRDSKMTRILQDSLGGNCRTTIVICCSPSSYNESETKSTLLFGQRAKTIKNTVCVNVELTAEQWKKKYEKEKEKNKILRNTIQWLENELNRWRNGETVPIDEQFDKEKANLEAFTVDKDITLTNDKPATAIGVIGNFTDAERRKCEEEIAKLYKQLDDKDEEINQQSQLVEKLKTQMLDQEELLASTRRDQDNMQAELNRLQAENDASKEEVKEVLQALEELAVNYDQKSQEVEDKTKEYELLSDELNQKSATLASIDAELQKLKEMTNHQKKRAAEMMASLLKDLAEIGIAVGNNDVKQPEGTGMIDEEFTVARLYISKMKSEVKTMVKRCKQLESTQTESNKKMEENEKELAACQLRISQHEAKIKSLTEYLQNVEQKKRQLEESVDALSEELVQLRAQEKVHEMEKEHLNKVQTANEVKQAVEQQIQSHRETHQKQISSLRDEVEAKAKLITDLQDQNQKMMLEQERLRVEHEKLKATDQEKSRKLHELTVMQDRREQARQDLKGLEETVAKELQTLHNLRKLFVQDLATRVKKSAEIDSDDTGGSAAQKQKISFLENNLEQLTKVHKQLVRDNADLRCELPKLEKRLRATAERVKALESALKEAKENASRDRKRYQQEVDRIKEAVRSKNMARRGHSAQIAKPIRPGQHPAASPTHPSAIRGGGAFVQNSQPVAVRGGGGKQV
UniProt Q14657: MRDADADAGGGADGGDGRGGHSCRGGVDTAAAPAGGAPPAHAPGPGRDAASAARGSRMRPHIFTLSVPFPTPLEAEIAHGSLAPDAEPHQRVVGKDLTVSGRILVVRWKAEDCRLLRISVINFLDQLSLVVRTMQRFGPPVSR
UniProt O00505, whole entry, looked up: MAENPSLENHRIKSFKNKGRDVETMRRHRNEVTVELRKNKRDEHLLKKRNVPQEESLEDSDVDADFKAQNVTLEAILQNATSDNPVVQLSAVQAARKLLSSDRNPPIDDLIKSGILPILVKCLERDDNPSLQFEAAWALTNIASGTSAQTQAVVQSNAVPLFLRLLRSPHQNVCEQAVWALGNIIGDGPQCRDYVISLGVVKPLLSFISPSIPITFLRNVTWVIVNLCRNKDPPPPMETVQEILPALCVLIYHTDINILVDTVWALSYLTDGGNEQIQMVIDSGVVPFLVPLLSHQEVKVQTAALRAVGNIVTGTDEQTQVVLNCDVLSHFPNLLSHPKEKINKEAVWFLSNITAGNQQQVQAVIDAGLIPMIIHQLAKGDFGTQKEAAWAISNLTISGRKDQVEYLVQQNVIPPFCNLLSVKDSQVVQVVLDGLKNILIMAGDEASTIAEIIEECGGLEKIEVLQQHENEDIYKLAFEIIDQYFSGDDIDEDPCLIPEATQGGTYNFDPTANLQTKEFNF
UniProt P41229: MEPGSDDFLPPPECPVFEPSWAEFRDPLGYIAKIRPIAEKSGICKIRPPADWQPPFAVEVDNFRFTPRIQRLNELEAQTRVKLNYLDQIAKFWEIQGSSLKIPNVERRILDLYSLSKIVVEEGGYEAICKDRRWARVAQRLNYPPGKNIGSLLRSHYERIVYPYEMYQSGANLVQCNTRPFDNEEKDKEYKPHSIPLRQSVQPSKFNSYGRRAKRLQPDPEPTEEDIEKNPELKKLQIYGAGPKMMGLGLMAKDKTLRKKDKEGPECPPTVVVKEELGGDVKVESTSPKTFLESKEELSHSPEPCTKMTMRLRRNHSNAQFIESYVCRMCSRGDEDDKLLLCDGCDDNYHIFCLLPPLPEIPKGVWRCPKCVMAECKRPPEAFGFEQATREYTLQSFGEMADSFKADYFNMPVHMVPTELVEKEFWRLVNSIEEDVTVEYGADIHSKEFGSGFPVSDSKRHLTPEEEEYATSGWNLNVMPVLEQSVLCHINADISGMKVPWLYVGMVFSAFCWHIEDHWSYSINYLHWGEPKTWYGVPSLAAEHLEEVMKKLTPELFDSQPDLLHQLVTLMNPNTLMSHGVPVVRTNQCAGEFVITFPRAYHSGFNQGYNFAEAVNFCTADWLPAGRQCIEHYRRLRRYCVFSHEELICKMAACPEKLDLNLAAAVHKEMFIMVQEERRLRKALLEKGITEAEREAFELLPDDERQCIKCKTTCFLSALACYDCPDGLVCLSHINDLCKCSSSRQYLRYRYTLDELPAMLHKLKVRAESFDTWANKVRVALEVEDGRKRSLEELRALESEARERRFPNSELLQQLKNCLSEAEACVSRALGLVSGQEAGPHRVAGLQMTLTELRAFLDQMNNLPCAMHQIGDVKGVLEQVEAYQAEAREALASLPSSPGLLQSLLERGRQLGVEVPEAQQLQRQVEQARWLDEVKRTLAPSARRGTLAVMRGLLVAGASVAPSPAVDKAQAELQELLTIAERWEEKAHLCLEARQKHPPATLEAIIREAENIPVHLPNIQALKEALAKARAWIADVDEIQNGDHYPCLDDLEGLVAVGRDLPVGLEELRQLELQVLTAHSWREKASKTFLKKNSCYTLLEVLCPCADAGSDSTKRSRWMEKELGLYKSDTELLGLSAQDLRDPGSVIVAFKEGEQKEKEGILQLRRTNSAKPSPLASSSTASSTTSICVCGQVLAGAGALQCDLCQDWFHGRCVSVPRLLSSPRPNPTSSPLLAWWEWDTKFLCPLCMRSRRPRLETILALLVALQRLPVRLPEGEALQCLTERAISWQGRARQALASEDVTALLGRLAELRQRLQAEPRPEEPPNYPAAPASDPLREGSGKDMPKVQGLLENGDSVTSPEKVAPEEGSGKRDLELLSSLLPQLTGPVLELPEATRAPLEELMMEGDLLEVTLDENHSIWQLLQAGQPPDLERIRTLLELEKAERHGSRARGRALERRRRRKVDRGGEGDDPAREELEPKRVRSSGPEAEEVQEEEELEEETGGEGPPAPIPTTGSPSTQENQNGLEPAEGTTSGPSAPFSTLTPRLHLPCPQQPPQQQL
UniProt Q8IYS2: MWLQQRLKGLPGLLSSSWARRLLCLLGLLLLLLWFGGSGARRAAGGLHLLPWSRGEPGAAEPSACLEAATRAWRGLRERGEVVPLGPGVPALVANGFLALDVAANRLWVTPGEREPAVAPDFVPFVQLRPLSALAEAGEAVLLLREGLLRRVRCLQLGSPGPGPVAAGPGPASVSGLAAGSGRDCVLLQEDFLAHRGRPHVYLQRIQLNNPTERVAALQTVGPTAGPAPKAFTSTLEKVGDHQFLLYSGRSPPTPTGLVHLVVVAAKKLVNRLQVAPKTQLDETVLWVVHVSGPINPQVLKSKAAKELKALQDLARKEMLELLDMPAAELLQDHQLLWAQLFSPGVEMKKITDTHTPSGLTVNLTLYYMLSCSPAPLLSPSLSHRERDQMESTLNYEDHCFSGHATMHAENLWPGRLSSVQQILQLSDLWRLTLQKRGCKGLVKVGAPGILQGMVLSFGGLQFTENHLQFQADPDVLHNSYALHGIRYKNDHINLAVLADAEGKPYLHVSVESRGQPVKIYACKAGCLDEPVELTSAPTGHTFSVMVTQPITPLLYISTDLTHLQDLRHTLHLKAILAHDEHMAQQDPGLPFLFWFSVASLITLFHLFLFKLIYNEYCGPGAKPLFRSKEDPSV
UniProt Q96EK5: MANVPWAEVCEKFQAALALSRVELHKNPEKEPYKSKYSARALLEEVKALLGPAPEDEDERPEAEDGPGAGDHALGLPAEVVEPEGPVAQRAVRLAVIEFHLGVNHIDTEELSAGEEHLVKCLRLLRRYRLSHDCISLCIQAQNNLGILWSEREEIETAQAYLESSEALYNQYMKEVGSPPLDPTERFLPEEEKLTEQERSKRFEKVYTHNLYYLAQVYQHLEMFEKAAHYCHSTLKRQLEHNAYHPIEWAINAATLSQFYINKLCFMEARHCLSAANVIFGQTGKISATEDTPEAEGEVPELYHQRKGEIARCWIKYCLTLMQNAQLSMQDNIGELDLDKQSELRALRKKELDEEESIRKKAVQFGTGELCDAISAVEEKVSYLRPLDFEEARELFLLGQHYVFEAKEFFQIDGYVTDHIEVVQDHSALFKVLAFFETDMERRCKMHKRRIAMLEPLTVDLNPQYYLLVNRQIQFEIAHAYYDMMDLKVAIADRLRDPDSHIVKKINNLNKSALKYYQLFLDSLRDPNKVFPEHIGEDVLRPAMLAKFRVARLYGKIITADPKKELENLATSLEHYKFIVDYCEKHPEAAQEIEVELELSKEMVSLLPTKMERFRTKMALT

Key:
Experiment in all cases: log2 fold change, soluble protein after heating vs DMSO (PISA); higher = thermal stabilisation; K562 lysate, 10 uM; active = over 0.2 and 3.5 SD of the protein, either way, in both replicates (recomputed)
[1] = compound: C1=CC=C(C=C1)[C@H](COC2=CC3=C(C=C2)NC(=O)N3)NC(=O)C4=CC=CN(C4=O)CC5=CC(=C(C=C5)F)F
How it was run: (§1)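 Quantification was by TMTpro 16plex LC-MS/MS with equalised channel sums, applied to the supernatant after 21,000xg for 90 min. Samples were crude K562 extract at 1 mg/mL protein in PBS pH 7.4 with 1 mM MgCl2, treated with 10 μM compound for 30 min, heated for 3 min across 48°C-58°C, pooled and brought to 0.5% NP-40 at 4°C. Values are log-two fold changes in thermal stability relative to solvent controls, from duplicates.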

[2] = compound: CC1=C(SC2=C1C(=N[C@H](C3=NN=C(N32)C)CC(=O)N)C4=CC=C(C=C4)Cl)C
How it was run: as §1

[3] = compound: CC1=C2C(=CC=C1)N=C(N(C2=O)C3=CC=CC=C3C)CN4C=NC5=C(N=CN=C54)N
How it was run: as §1

[4] = compound: Cc1sc2c(c1C)C(c1ccc(Cl)cc1)=N[C@@H](CC(=O)OC(C)(C)C)c1nnc(C)n1-2
How it was run: as §1

[5] = compound: c1ccc([C@@H]2C[C@H]2NC2CCNCC2)cc1
How it was run: as §1

Measured: log2 fold change

KIF26A (UniProt Q9ULI4)
inactive: [1] 0.044 | [2] -0.011 | [3] 0.053 | [4] 0.09 | [5] -0.018

KXD1 (UniProt Q9BQD3)
inactive: [1] 0.066 | [2] -0.116 | [3] 0.081 | [4] 0.034 | [5] -0.003

KIF5B (UniProt P33176)
inactive: [1] 0 | [2] 0 | [3] 0.02 | [4] 0.007 | [5] 0.085

KNOP1 (UniProt Q1ED39)
inactive: [1] 0.078 | [2] 0.029 | [3] 0.177 | [4] -0.162 | [5] 0.032

KMT2D isoform 3 (UniProt O14686)
inactive: [1] 0.021 | [2] 0.006 | [3] 0.006 | [4] -0.03 | [5] 0.044

KPNB1 (UniProt Q14974)
inactive: [1] 0.002 | [2] 0.012 | [3] 0.012 | [4] -0.029 | [5] 0.016

LARP7 isoform 3 (UniProt Q4G0J3)
inactive: [1] 0.02 | [2] -0.003 | [3] 0.006 | [4] 0.002 | [5] 0

Quoted at random: 2 records from the list, in no set order.
KNOP1 (UniProt Q1ED39)
inactive: [1] 0.078 | [2] 0.029 | [3] 0.177 | [4] -0.162 | [5] 0.032

LARP7 isoform 3 (UniProt Q4G0J3)
inactive: [1] 0.02 | [2] -0.003 | [3] 0.006 | [4] 0.002 | [5] 0

Next records follow:

KPNA1 (UniProt P52294)
inactive: [1] -0.001 | [2] 0.042 | [3] 0.024 | [4] -0.013 | [5] -0.016

KNSTRN (UniProt Q9Y448)
inactive: [1] 0.097 | [2] -0.057 | [3] 0 | [4] 0.002 | [5] 0.034

L2HGDH (UniProt Q9H9P8)
inactive: [1] -0.019 | [2] 0.01 | [3] 0.004 | [4] 0.013 | [5] -0.021

KIAA1324L (UniProt A8MWY0)
inactive: [1] 0.052 | [2] -0.021 | [3] -0.089 | [4] -0.054 | [5] -0.066

KRI1 (UniProt Q8N9T8)
inactive: [1] 0.053 | [2] 0.043 | [3] 0.027 | [4] -0.048 | [5] -0.039

LAGE3 (UniProt Q14657)
inactive: [1] 0.067 | [2] -0.058 | [3] -0.087 | [4] -0.044 | [5] 0.018

LAMTOR4 (UniProt Q0VGL1)
inactive: [1] -0.014 | [2] 0.01 | [3] -0.002 | [4] -0.054 | [5] -0.056

KPNA3 (UniProt O00505)
inactive: [1] -0.058 | [2] 0.115 | [3] 0.02 | [4] -0.005 | [5] 0.049

KIF2A isoform 4 (UniProt O00139)
inactive: [1] 0.006 | [2] -0.012 | [3] 0.015 | [4] 0.012 | [5] 0.04

KDM5C (UniProt P41229)
inactive: [1] -0.01 | [2] 0 | [3] 0.008 | [4] -0.01 | [5] 0.032

KLC1 isoform 6 (UniProt Q07866)
inactive: [1] 0.001 | [2] 0.014 | [3] 0.027 | [4] 0.001 | [5] 0.033

KDM5B isoform 2 (UniProt Q9UGL1)
inactive: [1] -0.07 | [2] 0.117 | [3] 0.018 | [4] 0.07 | [5] -0.229

KTN1 (UniProt Q86UP2)
inactive: [1] -0.007 | [2] -0.002 | [3] 0.012 | [4] -0.019 | [5] 0

KIAA2013 (UniProt Q8IYS2)
inactive: [1] 0.077 | [2] -0.016 | [3] 0.046 | [4] 0.054 | [5] -0.021

KDSR (UniProt Q06136)
inactive: [1] -0.01 | [2] 0.036 | [3] 0.012 | [4] -0.077 | [5] -0.05

KIN (UniProt O60870)
inactive: [1] -0.028 | [2] -0.029 | [3] 0.014 | [4] -0.091 | [5] 0.014

KIFBP (UniProt Q96EK5)
inactive: [1] -0.046 | [2] 0.011 | [3] 0.011 | [4] 0.042 | [5] 0.044
